Data on 54 sequences can be found in publication PMC7819943, “Rice protein-binding microarrays: a tool to detect cis-acting elements near promoter regions in rice”.

The other results are listed elsewhere or left out.

The target of the test is T1, OsSMF1 (Oryza sativa, UniProt Q6ZLB0 1-436).
T1 sequence: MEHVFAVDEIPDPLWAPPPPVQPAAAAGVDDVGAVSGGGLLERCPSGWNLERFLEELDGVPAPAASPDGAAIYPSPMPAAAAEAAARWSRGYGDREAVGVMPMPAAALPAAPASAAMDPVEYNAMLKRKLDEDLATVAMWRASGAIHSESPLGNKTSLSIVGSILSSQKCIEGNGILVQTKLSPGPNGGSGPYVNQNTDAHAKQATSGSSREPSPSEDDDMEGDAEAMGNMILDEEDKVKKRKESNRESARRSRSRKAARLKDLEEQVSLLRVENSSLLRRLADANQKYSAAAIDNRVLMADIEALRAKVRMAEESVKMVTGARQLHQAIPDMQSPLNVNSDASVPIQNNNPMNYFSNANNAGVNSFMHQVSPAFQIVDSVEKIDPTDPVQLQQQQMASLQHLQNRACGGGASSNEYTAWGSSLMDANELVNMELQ
As to the kind of experiment: protein-binding microarray (RPBM); PBS, 2% BSA, 51.3 ng/ul salmon testes DNA, 50 uM zinc acetate, 200 nM TF, 25 C, 1 h; high values mean tight binding. The conditions noted are these: protein: recombinant; tags: N-terminal polyhistidine and DsRed monomer fusion (pET32a); chain copies: 2; label: CyDye5-dUTP incorporated in the synthesized complementary strand; 3' TTTTT single-stranded linker to array surface; dsDNA, one strand shown. The essentials:
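Transcription factors were made in E. coli BL21-CodonPlus as N-terminal fusions to a polyhistidine tag and DsRed, then purified on Ni–NTA. After primer extension with Cy5-dUTP and blocking with 2% BSA, a custom Agilent array was exposed for 1 h at 25 °C to 200 nM protein in PBS, 2% BSA, salmon testes DNA and 50 µM zinc acetate. Washed arrays were scanned on an Axon 4000B, and the binding signal is per-feature fluorescence intensity in arbitrary units.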
With “AAATGTTGATAAACTACGGCAATATTGAGTCATCAATAGCCGGAGTCACCTAGTGCAG”, the binding signal is 6260 fluorescence intensity (a.u.).

With “TTACTGCTACCTCCACTTCATGTTATAAGTTGTTTTACCTCGGAGTCACCTAGTGCAG”, the binding signal is 3480 fluorescence intensity (a.u.).

With “GTCTAAAACCTTATGCAGTCTGCCATCTGCTGAGTGTTCACGGAGTCACCTAGTGCAG”, the binding signal is 3490 fluorescence intensity (a.u.).

For the sequence “TACTTGCCATGTCCGGCCATGGCTGCCACCACTCGATCTCCGGAGTCACCTAGTGCAG”, the binding signal was 4070 fluorescence intensity (a.u.).

For “GCTACAGTAAATCCGACGTGGTTCGCCCCAGAAGCCGCCCCGGAGTCACCTAGTGCAG”, the binding signal was 4000 fluorescence intensity (a.u.).

In the case of “GATGTCATGGGTGCGTTGCCAGATGTGTTCTCCGGTGGCCCGGAGTCACCTAGTGCAG”, the binding signal was 3690 fluorescence intensity (a.u.).

“AGTTAGTTTTGATTAGGTGTCATTTAGTTTTAAATCCCCTCGGAGTCACCTAGTGCAG”: the binding signal was 5070 fluorescence intensity (a.u.).

For “GTTATTGAGGATGATTAAAACCGTTTGGTGCCCTGTCATACGGAGTCACCTAGTGCAG”, the binding signal is 4660 fluorescence intensity (a.u.).

Consider “AGATTGACGTTCCGCAAGTTGCTGACGCCACGAACATCGTCGGAGTCACCTAGTGCAG”, for which the binding signal is 6580 fluorescence intensity (a.u.).

In the case of “GAATCAAATCTCTACCGTCCATCCGTCATCTGATTTAATCCGGAGTCACCTAGTGCAG”, the binding signal is 3330 fluorescence intensity (a.u.).

On to “GTTTGTCGTCATGGAGCATCGTCAGCACATCACGGCACCACGGAGTCACCTAGTGCAG”, for which the binding signal was 9400 fluorescence intensity (a.u.).

Take “CGCAGTTTGACGTGTTTCCAAGTGATATGTTTTCAGTTCACGGAGTCACCTAGTGCAG”: the binding signal was 4550 fluorescence intensity (a.u.).

On to “CGCCACCGCATCCAGTCACCTCACCACCACCGCAGCATCACGGAGTCACCTAGTGCAG”, for which the binding signal is 6880 fluorescence intensity (a.u.).

For “GGGTCTTGAAAGAGAAGAATCAAAGACGAACGTGGCATCCCGGAGTCACCTAGTGCAG”, the binding signal is 6080 fluorescence intensity (a.u.).

On to “TCCTCTCCACTCCCACGTTATCACCTCGCCGCTGTGCTCCCGGAGTCACCTAGTGCAG”, for which the binding signal is 5330 fluorescence intensity (a.u.).

For the sequence “ATGTGATGCATGATGATTAGATATGCTTGCATGTTAATTTCGGAGTCACCTAGTGCAG”, the binding signal is 3160 fluorescence intensity (a.u.).

In the case of “CATTTCCTGTGGCGTGGTGTTAGCAGAAGCCCTTGTCCACCGGAGTCACCTAGTGCAG”, the binding signal is 3340 fluorescence intensity (a.u.).

Turning to “GACAGTCCGACTAACAGCCGTCACGACACTTACTGTTTTGCGGAGTCACCTAGTGCAG”, the binding signal was 8310 fluorescence intensity (a.u.).

On to “GCTGCAACTAGCTGCCGTGTAGCTAAAGAAAATACAAGCCCGGAGTCACCTAGTGCAG”, for which the binding signal was 3230 fluorescence intensity (a.u.).

Regarding “CAAATGACAGCTGTGTTTAGTTTCACACTAAAATTGAAAGCGGAGTCACCTAGTGCAG”, the binding signal is 4370 fluorescence intensity (a.u.).

Regarding “TCGCCGGCATGGGCTCACGGACTCCCGTCACGTGGGCAACCGGAGTCACCTAGTGCAG”, the binding signal is 4680 fluorescence intensity (a.u.).

Regarding “TTTGGGGCGCGGGTGGGTGGCTGGGTGCGCGTCGATCGTGCGGAGTCACCTAGTGCAG”, the binding signal was 5310 fluorescence intensity (a.u.).

In the case of “CTCCCCTCAACCGTCCGTCCATCCCCTGTCAAGTTCGCCGCGGAGTCACCTAGTGCAG”, the binding signal was 3250 fluorescence intensity (a.u.).

Turning to “AATAAGCTACTGACACGTTGCTGTATGCGGTATACTTTGTCGGAGTCACCTAGTGCAG”, the binding signal is 3660 fluorescence intensity (a.u.).

Take “GTGAGCCCATGGGCCGTGGCCACTTGTGGGCTATGATATGCGGAGTCACCTAGTGCAG”: the binding signal was 18000 fluorescence intensity (a.u.).

For the sequence “AAGAAGAGTCTGAGACTCTGAGTTGGATGGATAGGGTCCCCGGAGTCACCTAGTGCAG”, the binding signal was 3560 fluorescence intensity (a.u.).

Take “GCCAGGTGGGCTGGCGCTGAGTGTCCCACGGTCAGCGCCACGGAGTCACCTAGTGCAG”: the binding signal is 4010 fluorescence intensity (a.u.).

Regarding “ATCATAGTACTACGAATCTAGACAAGAGGCATATCCAGATCGGAGTCACCTAGTGCAG”, the binding signal was 34600 fluorescence intensity (a.u.).

With “TCTAACAACCCTTTTGCTTCCTCTGAATGGCCTTGTCACCCGGAGTCACCTAGTGCAG”, the binding signal was 3600 fluorescence intensity (a.u.).

For the sequence “CTCTCCTCCAGCCACGTGGCGCCTAGCCCCGCCGCCTACGCGGAGTCACCTAGTGCAG”, the binding signal is 23400 fluorescence intensity (a.u.).

For “GAAGAAGATAGCACCGCATGGGTCTGTGCCTTACTTCTTGCGGAGTCACCTAGTGCAG”, the binding signal is 38900 fluorescence intensity (a.u.).

On to “CGTCGTTCTATTTGGCGTTGAGGTGTCTAATTTCAGCGCCCGGAGTCACCTAGTGCAG”, for which the binding signal is 30500 fluorescence intensity (a.u.).

For the sequence “CTTACTCTGCAATATCATGTGGCCACGCAAGGACACAATTCGGAGTCACCTAGTGCAG”, the binding signal was 5460 fluorescence intensity (a.u.).

In the case of “TCTCAGCATGGTCTACATCATCCAAGGTTTGTATGATGATCGGAGTCACCTAGTGCAG”, the binding signal is 3220 fluorescence intensity (a.u.).

For “TAATACAGATTATAACAATCTAGCTTATAGTAATCTGACTCGGAGTCACCTAGTGCAG”, the binding signal was 23100 fluorescence intensity (a.u.).

As to “CCCTTTTCGTTCCCCACCATCCACGCGGCCGTCCATCCCTCGGAGTCACCTAGTGCAG”, the binding signal was 4000 fluorescence intensity (a.u.).

In the case of “GTTGACGGGGTTTGTGAGGTGTGGCGGTGACTTGGAAAGACGGAGTCACCTAGTGCAG”, the binding signal is 3540 fluorescence intensity (a.u.).

On to “ATATTTTATGATCTGATGAATCATTGGTGAAAAGTGAATGCGGAGTCACCTAGTGCAG”, for which the binding signal is 3250 fluorescence intensity (a.u.).

Turning to “ATTCTTCACACATCTGCACTTTCAGCTTCCCCTATCGTGGCGGAGTCACCTAGTGCAG”, the binding signal was 3660 fluorescence intensity (a.u.).

“TCCGGCGAGCCTCGCCGCCGGCGTCAGCAAGCTCATCCCCCGGAGTCACCTAGTGCAG”: the binding signal is 5990 fluorescence intensity (a.u.).

As for “CCGGCCCATCGAAGGCTACACGTCTCCCCGCGGGCGTGTGCGGAGTCACCTAGTGCAG”, the binding signal was 3420 fluorescence intensity (a.u.).

In the case of “CAATCCGCCCGTTCCGGCCACCCCACCGCCCCGGAATCCCCGGAGTCACCTAGTGCAG”, the binding signal is 3410 fluorescence intensity (a.u.).

On to “GGTACCAGGTGGTACCAAGTACCATGAAGGAGTCACTACTCGGAGTCACCTAGTGCAG”, for which the binding signal was 3280 fluorescence intensity (a.u.).

Take “GCGGCGGAGGGCGACGAGGCAGCGGCTGCATTGGCGGTGGCGGAGTCACCTAGTGCAG”: the binding signal is 3320 fluorescence intensity (a.u.).

With “CCAGCACCCCGGAGACCTGGCTCAGCGCCGACACCCTGTCCGGAGTCACCTAGTGCAG”, the binding signal is 25300 fluorescence intensity (a.u.).

With “CCATGAAGGAGCTTGTCCACATCATACTGCATCGGGGAGCCGGAGTCACCTAGTGCAG”, the binding signal was 9100 fluorescence intensity (a.u.).

“CATAGATCTTTTGACTAGGTTTTCGTTCCACGTGGCATCACGGAGTCACCTAGTGCAG”: the binding signal was 12900 fluorescence intensity (a.u.).

For “AACCAGCCTACCAACCCGTCAAGTCATCGACACAGGGATCCGGAGTCACCTAGTGCAG”, the binding signal was 3320 fluorescence intensity (a.u.).

For the sequence “ATTTTCATGCTTAGATGTAGTAACTACACCAACATTACATCGGAGTCACCTAGTGCAG”, the binding signal is 3310 fluorescence intensity (a.u.).

Consider “CAAAATGAACCACAAACTGATTTGCTCCTCCCGAAGGTTCCGGAGTCACCTAGTGCAG”, for which the binding signal is 37600 fluorescence intensity (a.u.).

In the case of “GCGGCGCGCGCGGTGGAGCGGTACCGCGTGACGAAGCTGTCGGAGTCACCTAGTGCAG”, the binding signal is 3620 fluorescence intensity (a.u.).

For “TCTGCCTTGAAGTGGTACCGTGGGTGGGAGGGTAGTTATGCGGAGTCACCTAGTGCAG”, the binding signal is 3480 fluorescence intensity (a.u.).

Take “TCACCGCGCTGCAGACGCTGCTCGTCAGCAACAACCGGCTCGGAGTCACCTAGTGCAG”: the binding signal was 3820 fluorescence intensity (a.u.).

On to “GTGATCTTGAAGAGTTGTGTGATTAGACGACGTGGATATACGGAGTCACCTAGTGCAG”, for which the binding signal is 21900 fluorescence intensity (a.u.).
